Drawing on PMC7819943, “Rice protein-binding microarrays: a tool to detect cis-acting elements near promoter regions in rice”, this text covers binding signal for 42 sequences.

Protein sequences, listed by entry. Tags and fused reporters are not part of them.
UniProt Q0JBA9, entry or part of it: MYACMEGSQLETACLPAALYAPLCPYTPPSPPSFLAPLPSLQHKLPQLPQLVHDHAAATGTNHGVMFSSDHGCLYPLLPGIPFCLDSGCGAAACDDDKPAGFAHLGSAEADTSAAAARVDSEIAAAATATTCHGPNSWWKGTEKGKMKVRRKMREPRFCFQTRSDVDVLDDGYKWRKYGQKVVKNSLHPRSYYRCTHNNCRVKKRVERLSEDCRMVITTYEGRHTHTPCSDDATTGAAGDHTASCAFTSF

This is one part of the list.

The assay concerns the target OsWRKY34 (Oryza sativa, UniProt Q0JBA9 1-250). Description: protein-binding microarray (RPBM); PBS, 2% BSA, 51.3 ng/ul salmon testes DNA, 50 uM zinc acetate, 200 nM TF, 25 C, 1 h; high values mean tight binding. The note with it: protein: recombinant; tags: N-terminal polyhistidine and DsRed monomer fusion (pET32a); label: CyDye5-dUTP incorporated in the synthesized complementary strand; 3' TTTTT single-stranded linker to array surface; dsDNA, one strand shown. The method, boiled down: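 In PBS with 2% BSA, salmon testes DNA and 50 µM zinc acetate, 200 nM protein was incubated on a custom Agilent array at 25 °C for 1 h and then washed off. The array had been made double-stranded by primer extension with Cy5-dUTP and blocked with 2% BSA. The proteins were transcription factors fused N-terminally to polyhistidine and DsRed, expressed in E. coli BL21-CodonPlus and purified on Ni–NTA. The binding signal is per-feature fluorescence intensity (arbitrary units) from an Axon 4000B scanner.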
Take “CGCGCCACTCTCATCCGCCTCCGCATATGTCGGCCTCGTGCGGAGTCACCTAGTGCAG”: the binding signal is 8580 fluorescence intensity (a.u.).

Consider “TACAAGTATCGTTTATTTTTGTTATAACTTGTTTTAATCACGGAGTCACCTAGTGCAG”, for which the binding signal was 10700 fluorescence intensity (a.u.).

Take “CTCCTCCACCCACCCACACTTCACACTTCTTGTTTGATCACGGAGTCACCTAGTGCAG”: the binding signal is 8830 fluorescence intensity (a.u.).

As to “ACTCCCCTCCCCGCCACGTCGCCATTCTTCCCGCTCCTGACGGAGTCACCTAGTGCAG”, the binding signal is 9750 fluorescence intensity (a.u.).

For “GGGGTGGGCGGAGGGAGCAGGTGATACTGCCACCCTCGTACGGAGTCACCTAGTGCAG”, the binding signal is 9150 fluorescence intensity (a.u.).

For the sequence “ATGTATCTTATGCATACTCACTGCACGTATGCACGTCACACGGAGTCACCTAGTGCAG”, the binding signal was 9200 fluorescence intensity (a.u.).

Regarding “TCTATGCTGATTAATTTTTTCTTGTTCTGTCCCTATTAACCGGAGTCACCTAGTGCAG”, the binding signal is 9360 fluorescence intensity (a.u.).

In the case of “CCAACGTATGTGTACAACCGTCCCCAAGCTTCTGATTATCCGGAGTCACCTAGTGCAG”, the binding signal is 8080 fluorescence intensity (a.u.).

In the case of “ATGACCTTGCATGCCATTTCTATATTAAGCATCTTATCGTCGGAGTCACCTAGTGCAG”, the binding signal is 9680 fluorescence intensity (a.u.).

Turning to “CCTCCCGCCTCTACTCCACGCTACCGCTGCTGCTGCTGCTCGGAGTCACCTAGTGCAG”, the binding signal was 8360 fluorescence intensity (a.u.).

Regarding “TCATTCGTAAGGCCGTCAGCAATATCTTCTATAGGTTCGTCGGAGTCACCTAGTGCAG”, the binding signal was 8270 fluorescence intensity (a.u.).

Consider “TACGGACTTCTTCCAAGTTTTATTGTGTACTACATCTTTTCGGAGTCACCTAGTGCAG”, for which the binding signal is 8890 fluorescence intensity (a.u.).

On to “CCCACCATTTTATATTATAAGCTGTTTGACTTTTTCTTAACGGAGTCACCTAGTGCAG”, for which the binding signal was 13100 fluorescence intensity (a.u.).

Consider “GTGGCGCCGAGGGAGGGGAACGCCGGTGTGGGGAGGGCGGCGGAGTCACCTAGTGCAG”, for which the binding signal was 11600 fluorescence intensity (a.u.).

For “TTTCTACGTCTAGGTTAAGCCCATAGTCTCATACTCTCACCGGAGTCACCTAGTGCAG”, the binding signal is 8420 fluorescence intensity (a.u.).

Turning to “CCATCCGGCGAGCAGGGGAGGGGAGGGTCGCTGATCTCCACGGAGTCACCTAGTGCAG”, the binding signal is 11700 fluorescence intensity (a.u.).

On to “GTGGTACTAGAGGGATGTGCATGCTTGATTTGAAGACATACGGAGTCACCTAGTGCAG”, for which the binding signal was 8390 fluorescence intensity (a.u.).

Take “TACCCTACACCTGCACTACATTTGTCATGCGCAATTTCATCGGAGTCACCTAGTGCAG”: the binding signal was 10600 fluorescence intensity (a.u.).

Consider “TTAATTTGTTTTCACGTATGGTTGTGTTGCCCGCTTGGAACGGAGTCACCTAGTGCAG”, for which the binding signal is 9500 fluorescence intensity (a.u.).

Take “GGTTTGAAATAGATTTTGTTTGGTTGGTGGTATAGATAGTCGGAGTCACCTAGTGCAG”: the binding signal was 10200 fluorescence intensity (a.u.).

Turning to “GAAGGGGCGCGTTTGTGTTGTTTGGTATGCGATGGACAAGCGGAGTCACCTAGTGCAG”, the binding signal was 9560 fluorescence intensity (a.u.).

“TTTGTCTCCTGTTTCCCTGATGTCGTACTACGTAGATCCTCGGAGTCACCTAGTGCAG”: the binding signal is 8640 fluorescence intensity (a.u.).

As for “TACACTCCACCGGCCGCTCGCTTGCCGCCGCTCCGCTCCGCGGAGTCACCTAGTGCAG”, the binding signal is 11500 fluorescence intensity (a.u.).

Regarding “GCTATCCATATTTAGTTTTCTTCTTCTTCTTCTTCTTCTTCGGAGTCACCTAGTGCAG”, the binding signal is 10600 fluorescence intensity (a.u.).

Turning to “CCCTTGGCGAACACCGGCACTTTCACGCACACCTCGTGAACGGAGTCACCTAGTGCAG”, the binding signal was 8180 fluorescence intensity (a.u.).

In the case of “ACTATTGACCACCATTAATTATACATAACCACTTTAGTATCGGAGTCACCTAGTGCAG”, the binding signal is 8180 fluorescence intensity (a.u.).

Regarding “GAGGACATGCATGTGCAAGGGGAGCAGGTGGGGTAAAATGCGGAGTCACCTAGTGCAG”, the binding signal was 8930 fluorescence intensity (a.u.).

For the sequence “AAATAAATCTCAGTTCTCTATTGCATGGTTTCTGGTACTCCGGAGTCACCTAGTGCAG”, the binding signal is 9830 fluorescence intensity (a.u.).

Regarding “ACAACCTGGCCCCACACCCAAACCCGGGCCCACGTGTCATCGGAGTCACCTAGTGCAG”, the binding signal is 9100 fluorescence intensity (a.u.).

For the sequence “ATACTTCTATATCATTTTTTTTTGCGGGGTACTTCTATATCGGAGTCACCTAGTGCAG”, the binding signal is 12600 fluorescence intensity (a.u.).

“GTTTATTTCAGCTCTCTTTGTTGTGGGGAAATAGCACCAACGGAGTCACCTAGTGCAG”: the binding signal is 8700 fluorescence intensity (a.u.).

As to “GTTGGTTTCTCGCCCTCCGTTTGGGTAGTAGCTGATATACCGGAGTCACCTAGTGCAG”, the binding signal is 9750 fluorescence intensity (a.u.).

“CACGTTATCATTTATTTTGTATATATACTGAGTTACATCTCGGAGTCACCTAGTGCAG”: the binding signal is 10500 fluorescence intensity (a.u.).

On to “TTCCGTTTCACCACCACCGTCTCGGATCAAACCGGCCAACCGGAGTCACCTAGTGCAG”, for which the binding signal was 10400 fluorescence intensity (a.u.).

On to “GCCATCACCCAATATATGTTACTCCATTTTTTTTCCTCGTCGGAGTCACCTAGTGCAG”, for which the binding signal is 10800 fluorescence intensity (a.u.).

Take “GCAATGTCTGAGTACTTATCTAGCTGGTCACAAAACTAATCGGAGTCACCTAGTGCAG”: the binding signal was 8580 fluorescence intensity (a.u.).

On to “CCTTGACCGTTCCCAGAAAGGTTGACCGTTGTCCGTCACTCGGAGTCACCTAGTGCAG”, for which the binding signal is 9240 fluorescence intensity (a.u.).

Regarding “TCGACCTCGCCCTCGACACGCTCGCCGCCGCGCGCTCCTTCGGAGTCACCTAGTGCAG”, the binding signal is 9430 fluorescence intensity (a.u.).

“AACCCTTAGTCTGTATATCCAACAGCTCATATCAAGGTTTCGGAGTCACCTAGTGCAG”: the binding signal is 9070 fluorescence intensity (a.u.).

In the case of “CCTGCAGAATTATTGCAGTGTGTGTGCCAGTTCTGTTAATCGGAGTCACCTAGTGCAG”, the binding signal is 8980 fluorescence intensity (a.u.).

Consider “ATCATGTAATTTTTTCTTGTTCTATCAATATTTTTCACCTCGGAGTCACCTAGTGCAG”, for which the binding signal was 8230 fluorescence intensity (a.u.).

As to “AGAGCCGCAACGGGCCAGCACATGACCCATCTGTCACCGCCGGAGTCACCTAGTGCAG”, the binding signal is 8360 fluorescence intensity (a.u.).
